Assay results: publication PMC6721548
Results are given in words; binding and its absence hold for the method and conditions named. In cells and extracts the contact can be indirect. Some entries that bind do so weakly or less than the wild type.

The chains behind the UniProt entries cited, without tags or fusion partners. Residues count along the entry.
UniProt Q04206: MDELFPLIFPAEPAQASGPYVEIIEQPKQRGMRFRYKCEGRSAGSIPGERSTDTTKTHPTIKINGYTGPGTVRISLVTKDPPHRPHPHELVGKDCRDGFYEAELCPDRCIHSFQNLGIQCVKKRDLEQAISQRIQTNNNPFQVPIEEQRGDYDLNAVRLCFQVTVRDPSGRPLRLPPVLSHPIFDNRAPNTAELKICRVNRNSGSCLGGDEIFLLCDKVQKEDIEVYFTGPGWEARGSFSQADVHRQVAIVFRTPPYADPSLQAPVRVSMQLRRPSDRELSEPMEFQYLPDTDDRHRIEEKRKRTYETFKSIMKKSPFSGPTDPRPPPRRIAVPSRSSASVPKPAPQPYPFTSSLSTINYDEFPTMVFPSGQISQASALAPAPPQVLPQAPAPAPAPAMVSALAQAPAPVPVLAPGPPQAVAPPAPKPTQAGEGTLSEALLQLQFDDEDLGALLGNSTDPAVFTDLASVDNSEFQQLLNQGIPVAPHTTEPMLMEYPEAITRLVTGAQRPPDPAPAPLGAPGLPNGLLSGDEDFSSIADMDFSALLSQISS
UniProt Q9Z1E3: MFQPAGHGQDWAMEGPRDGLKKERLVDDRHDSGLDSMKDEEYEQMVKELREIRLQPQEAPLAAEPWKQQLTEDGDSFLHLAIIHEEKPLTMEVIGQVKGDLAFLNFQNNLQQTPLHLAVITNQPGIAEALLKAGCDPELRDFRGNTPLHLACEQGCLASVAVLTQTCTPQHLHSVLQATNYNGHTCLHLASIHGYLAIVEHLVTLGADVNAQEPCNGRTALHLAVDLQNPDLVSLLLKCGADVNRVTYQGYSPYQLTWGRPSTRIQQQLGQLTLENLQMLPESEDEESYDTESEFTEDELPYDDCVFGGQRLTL
UniProt P19838, residues 1-433: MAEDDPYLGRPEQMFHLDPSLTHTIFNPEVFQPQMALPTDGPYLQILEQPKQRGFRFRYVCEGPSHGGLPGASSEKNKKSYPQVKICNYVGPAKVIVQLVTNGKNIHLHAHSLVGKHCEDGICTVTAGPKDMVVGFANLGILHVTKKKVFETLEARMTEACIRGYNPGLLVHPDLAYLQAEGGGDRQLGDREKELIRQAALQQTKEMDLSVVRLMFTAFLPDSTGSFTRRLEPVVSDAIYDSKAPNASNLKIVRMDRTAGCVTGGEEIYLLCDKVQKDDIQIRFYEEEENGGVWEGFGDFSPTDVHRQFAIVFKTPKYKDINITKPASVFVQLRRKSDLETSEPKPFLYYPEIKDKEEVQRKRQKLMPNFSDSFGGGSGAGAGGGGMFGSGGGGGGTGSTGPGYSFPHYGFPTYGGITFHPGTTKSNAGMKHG
UniProt Q04207: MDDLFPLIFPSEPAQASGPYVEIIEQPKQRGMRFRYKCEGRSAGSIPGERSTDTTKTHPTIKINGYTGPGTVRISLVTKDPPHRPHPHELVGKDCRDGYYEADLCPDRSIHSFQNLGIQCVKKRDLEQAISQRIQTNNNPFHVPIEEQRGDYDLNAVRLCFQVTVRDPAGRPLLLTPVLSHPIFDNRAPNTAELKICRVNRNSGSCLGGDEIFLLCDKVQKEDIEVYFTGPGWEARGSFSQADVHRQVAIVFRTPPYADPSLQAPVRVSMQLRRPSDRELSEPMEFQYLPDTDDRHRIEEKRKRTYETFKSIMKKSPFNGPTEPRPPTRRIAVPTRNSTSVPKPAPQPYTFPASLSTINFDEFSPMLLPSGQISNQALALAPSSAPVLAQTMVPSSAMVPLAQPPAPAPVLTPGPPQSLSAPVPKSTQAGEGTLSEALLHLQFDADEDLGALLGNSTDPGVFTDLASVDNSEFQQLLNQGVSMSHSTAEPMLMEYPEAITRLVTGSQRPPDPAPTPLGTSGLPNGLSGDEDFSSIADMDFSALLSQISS

Key:
[1] = target: NF-κB p65 (RELA), human, endogenous in HeLa (human (endogenous in HeLa)) (UniProt Q04206); experiment: proximity ligation; modified PLA on fixed HeLa cells with additional permeabilisation (0.005% saponin/0.1% Triton-X, 40% glycerol overnight, 3 freeze and thaw cycles) for nuclear access; used for p65/p50 and for Immuno-PLA (p65/IκBα PLA with p65 immunofluorescence); untreated or IL-1α (10 ng/mL)
[2] = target: IκBα (inhibitor of NF-κB alpha), mouse, endogenous in MEFs (mouse (endogenous in MEFs)) (UniProt Q9Z1E3); experiment: proximity ligation; in situ PLA (Duolink) on fixed, saponin-permeabilised wild type MEFs, untreated or IL-1α (10 ng/mL) 60 min; antibodies anti-p65 (F-6) and anti-IκBα (E130); controls: p65 -/- MEFs, one or both primary antibodies omitted

| binding [1] | binding [2] | Substance |
| --- | --- | --- |
| binds |  | NF-κB p50, human, endogenous in HeLa (from UniProt P19838 1-433) |
|  | binds | NF-κB p65 (RELA), mouse, endogenous in MEFs (from UniProt Q04207 1-549) |
